Isolated yield and isolated mass data for 24 substances are collected here from PMC8762706 (ACS Medicinal Chemistry Letters, 2021).

The data set is described as follows: general procedure: Fmoc solid-phase peptide synthesis; (2-Cl)Trt chloride resin (MeLeu-(2-Cl)Trt resin 3; H-MeIle-(2-Cl)Trt resin for 11 and 12); HATU/DIEA; DIC/HOAt; DIC/HOBt; DIC/DMAP for the ester bond. To be noted: whole synthesis; for isolated yield: from resin.

For the setting “scale 0.100 mmol”, “[MeAla3, MeLys(Me)5, MeAla6, Phe(4-OCF3)10]-Coibamide A” had an isolated yield of 16% and an isolated mass of 21.8 mg.

As to [MeAla3, D-MeLys5, MeAla6]-Coibamide A, under “scale 0.100 mmol”, the isolated yield is 13% and the isolated mass was 17.2 mg.

For the setting “scale 0.300 mmol”, [Bph10]-Coibamide A yielded an isolated yield of 6.1% and an isolated mass of 26.5 mg.

Under “scale 0.100 mmol”, “[MeAla3, MeLys(Me)5, MeAla6, D-MeLeu9]-Coibamide A” returned an isolated yield of 10% and an isolated mass of 13.4 mg.

As to “[MeAla3, MeLys(Me)5, MeAla6, Phe(4-CF3)10]-Coibamide A”, under “scale 0.100 mmol”, the isolated yield was 25% and the isolated mass turned out to be 32.8 mg.

As to “[MeAla3, MeLys(Me)5, MeAla6, 2-Pal10]-Coibamide A”, under “scale 0.100 mmol”, the isolated yield was 5% and the isolated mass came to 7.1 mg.

Under “scale 0.100 mmol”, “[MeAla3, D-MeLys(Me)5, MeAla6]-Coibamide A” came in with an isolated yield of 8% and an isolated mass of 10.3 mg.

With “[MeAla3, MeLys(Me)5, MeAla6, Phe(4-NO2)10]-Coibamide A”, for the setting “scale 0.100 mmol”, the isolated yield was found to be 13% and the isolated mass is 17.4 mg.

For the substance “[MeAla3, Leu4, MeLys(Me)5, MeAla6]-Coibamide A”, where the note is “scale 0.100 mmol”, the isolated yield is given as 4% and the isolated mass came out at 5.4 mg.

Where the note is “scale 0.300 mmol”, [MeAla3, MeAla6, Bph10]-Coibamide A had an isolated yield of 7.3% and an isolated mass of 30.3 mg.

“[MeAla3, MeOrn(Me)5, MeAla6]-Coibamide A”: where the note is “scale 0.100 mmol”, the isolated yield turned out to be 22% and the isolated mass is listed as 27.6 mg.

On to [MeAla3, Lys(Me)5, MeAla6]-Coibamide A, for which, under “scale 0.100 mmol”, the isolated yield is reported as 7% and the isolated mass was 8.5 mg.

For the setting “scale 0.100 mmol”, “[MeAla3, MeLys(Me)5, MeAla6, 2-Nal10]-Coibamide A” showed an isolated yield of 4% and an isolated mass of 5.5 mg.

Where the note is “scale 0.100 mmol”, “[MeAla3, MeLys(Me)5, MeAla6, Phe10]-Coibamide A” returned an isolated yield of 3% and an isolated mass of 4.2 mg.

For the substance [Ala3, MeLys(Me)5, MeAla6]-Coibamide A, under “scale 0.100 mmol”, the isolated yield is given as 5% and the isolated mass is reported as 6.9 mg.

For the substance “[MeAla3, MeLys(Me)5, MeAla6, Phe(4-Ot-Bu)10]-Coibamide A”, where the note is “scale 0.100 mmol”, the isolated yield is 24% and the isolated mass was found to be 31.7 mg.

As for [MeAla3, MeLys(Me)5, Ala6]-Coibamide A, where the note is “scale 0.100 mmol”, the isolated yield was 7% and the isolated mass was 8.8 mg.

Under “scale 0.100 mmol”, [MeAla3, MeLys5, MeAla6]-Coibamide A had an isolated yield of 20% and an isolated mass of 25.6 mg.

Take “[MeAla3, MeLys(Me)5, MeAla6, D-Ala8]-Coibamide A”: under “scale 0.100 mmol”, the isolated yield stood at 3% and the isolated mass turned out to be 3.2 mg.

For [MeAla^3, MeLys(Me)^5, MeAla^6]-CbA, the isolated mass is reported as 5.9 mg. This substance also came in with an isolated yield (scale of the general procedure 0.100 mmol (0.300 mmol for 11 and 12)) of 4.4%.

For “[MeAla3, MeLys(Me)5, MeAla6, 3-Pal10]-Coibamide A”, where the note is “scale 0.100 mmol”, the isolated yield amounted to 23% and the isolated mass turned out to be 31.3 mg.

Where the note is “scale 0.100 mmol”, “[MeAla3, MeLys(Me)5, MeAla6, Phe(4-CN)10]-Coibamide A” yielded an isolated yield of 18% and an isolated mass of 23.9 mg.

Where the note is “scale 0.100 mmol”, “[MeAla3, MeLys(Me)5, MeAla6, D-Tyr(Me)10]-Coibamide A” came in with an isolated yield of 3% and an isolated mass of 4.4 mg.

With “[MeAla3, D-MeOrn(Me)5, MeAla6]-Coibamide A”, where the note is “scale 0.100 mmol”, the isolated yield amounted to 7% and the isolated mass was 9.5 mg.
